PubChem BioAssay AID322 (DTP/NCI, 2004)
The list shows only some results of the screen, not a fair sample: it gathers tests that were run many times, whatever their T/C, doses with no T/C, and many T/C values between a quarter and a half above the control. Other doses and runs of a compound stand elsewhere. T/C: endpoint of the treated group in % of that of the vehicle group. Some doses have a count of surviving animals in place of a T/C: the source holds a T/C of zero for them, seemingly a mark for toxic or unscored doses. Some doses without a T/C left all or most animals alive at the check, yet need not have been tolerated: survival well below the control is almost never listed, so the zero probably covers shortened survival too. Survivors were counted at the toxicity check, usually on the fifth day, unless a day is given; later deaths do not show. Schedule codes are those of the source, taken here to give the interval after Q, in days (D) or hours (H), and the number of doses after X. Some entries were tested several times; the results are listed from low to high. Signs of the kind (2×) count equal records among those shown. For survival time, the PubChem record calls one and a half times the control and up active, and a quarter to a half above the control has no call in these data; cut-offs in other NCI protocols can differ. Some T/C values carry the count of animals alive at the toxicity check (mostly the fifth day); without a count, all were alive then.

Test system: CD2F1 mice, P388/ADR leukemia ip, median survival T/C
Assay: NCI In Vivo Anticancer Drug Screen. Data for tumor model P388 Leukemia resistant to Adriamycin; NSC 123127, Developed at Scr 08 (intraperitoneal) in CD2F1 (CDF1) mice
Details: T/C endpoint: median survival time, vehicle: saline, higher T/C = longer survival
Protocol: The antitumor activity of compounds was measured in mice bearing transplantable tumors. Survival or tumor size were measured and the results are expressed as the measurement made in the treated group (T) divided by the measurement made in the vehicle treated control group (C). The tumor model used in this assay is P388 Leukemia resistant to Adriamycin; NSC 123127, Developed at Scr 08 (intraperitoneal) in CD2F1 (CDF1) mice

SMILES: COc1cccc2c1C(=O)c1c(O)c3c(c(O)c1C2=O)C[C@@](O)(C(=O)CO)C[C@@H]3OC1CC(N)C(O)C(C)O1 (stereo partly drawn)
- T/C (dose: 6.7 mg/kg/injection, schedule: Q01DX001 (ip), evaluated on day 56): 126 % of control
- T/C (dose: 6.7 mg/kg/injection, schedule: Q01DX001 (ip), evaluated on day 60): 126, 131, 135, 136, 145 % of control
- survivor count (dose: 6.7 mg/kg/injection, schedule: Q01DX001 (ip)): 0 of 10
- T/C (dose: 6.7 mg/kg/injection, schedule: Q04DX003 (ip)): 133 % of control
- survivor count (dose: 7.5 mg/kg/injection, schedule: Q04DX003 (ip)): 8 of 8
- T/C (dose: 8.0 mg/kg/injection, schedule: Q04DX003 (ip)): 125 % of control
- T/C (dose: 9.0 mg/kg/injection, schedule: Q04DX002 (ip)): 127 % of control
- T/C (dose: 10.0 mg/kg/injection, schedule: Q01DX001 (ip), evaluated on day 20): 112 and 140 % of control
- T/C (dose: 10.0 mg/kg/injection, schedule: Q01DX001 (ip), evaluated on day 23): 111 % of control
- T/C (dose: 10.0 mg/kg/injection, schedule: Q01DX001 (ip), evaluated on day 27): 126 % of control
- T/C (dose: 10.0 mg/kg/injection, schedule: Q01DX001 (ip), evaluated on day 30, list 1 of 2): 87, 92, 99, 107, 108, 110, 112, 113, 115, 116 (2×), 117, 118 (2×), 122, 123, 125, 127, 128 (2×), 129, 130 (2×), 134 (2×), 136, 138, 138 [9 of 10 alive], 141, 143, 144 % of control
- T/C (dose: 10.0 mg/kg/injection, schedule: Q01DX001 (ip), evaluated on day 30, list 2 of 2): 91, 94, 106, 108, 109, 111, 112, 114, 115, 116 (2×), 117, 118, 122, 123, 124, 126, 127, 128 (2×), 130 (3×), 131, 134, 135, 138 (3×), 141, 143, 147 % of control
- T/C (dose: 10.0 mg/kg/injection, schedule: Q01DX001 (ip), evaluated on day 45): 115, 119, 125, 126, 128, 129, 130, 133, 136 (2×), 138, 144 % of control
- T/C (dose: 10.0 mg/kg/injection, schedule: Q01DX001 (ip), evaluated on day 46): 124 % of control
- T/C (dose: 10.0 mg/kg/injection, schedule: Q01DX001 (ip), evaluated on day 56): 128 % of control
- T/C (dose: 10.0 mg/kg/injection, schedule: Q01DX001 (ip), evaluated on day 60): 97, 117, 122, 130, 137, 138 (2×), 150 % of control
- survivor count (dose: 10.0 mg/kg/injection, schedule: Q01DX001 (ip)): 0 of 10
- T/C (dose: 10.0 mg/kg/injection, schedule: Q01DX005 (ip)): 135 % of control
- T/C (dose: 10.0 mg/kg/injection, schedule: Q04DX003 (ip)): 131 % of control
- T/C (dose: 12.5 mg/kg/injection, schedule: Q01DX001 (ip)): 128 % of control
- T/C (dose: 15.0 mg/kg/injection, schedule: Q01DX001 (ip), evaluated on day 20): 102 % of control
- T/C (dose: 15.0 mg/kg/injection, schedule: Q01DX001 (ip), evaluated on day 23): 107 % of control
- T/C (dose: 15.0 mg/kg/injection, schedule: Q01DX001 (ip), evaluated on day 27): 125 % of control
- T/C (dose: 15.0 mg/kg/injection, schedule: Q01DX001 (ip), evaluated on day 30, list 1 of 2): 90, 96, 102 (2×), 104, 105, 107, 109, 110 (2×), 111, 113, 114 (2×), 115, 116, 118, 119, 121, 124 (2×), 125, 126 (2×), 127, 128, 134, 135, 136, 140 % of control
- T/C (dose: 15.0 mg/kg/injection, schedule: Q01DX001 (ip), evaluated on day 30, list 2 of 2): 88, 93, 98, 102, 104, 105, 106, 108, 109, 110, 111, 112, 113, 114, 115 (2×), 117, 118, 120 [8 of 10 alive], 122, 124, 125, 126 (2×), 127 (2×), 131, 132, 134, 135, 138 % of control
- T/C (dose: 15.0 mg/kg/injection, schedule: Q01DX001 (ip), evaluated on day 45): 107, 113, 116, 119, 120, 124, 126, 128, 131, 136, 138 % of control
- T/C (dose: 15.0 mg/kg/injection, schedule: Q01DX001 (ip), evaluated on day 46): 125 % of control
- T/C (dose: 15.0 mg/kg/injection, schedule: Q01DX001 (ip), evaluated on day 56): 111 % of control
- T/C (dose: 15.0 mg/kg/injection, schedule: Q01DX001 (ip), evaluated on day 60): 118, 121, 130, 137, 142, 144 % of control
- survivor count (dose: 15.0 mg/kg/injection, schedule: Q01DX001 (ip)): 0 of 10 and 10 of 10 (2×)
- T/C (dose: 20.0 mg/kg/injection, schedule: Q01DX001 (ip), evaluated on day 30): 127 and 132 % of control
- T/C (dose: 20.0 mg/kg/injection, schedule: Q01DX001 (ip), evaluated on day 45): 134 % of control
- T/C (dose: 20.0 mg/kg/injection, schedule: Q01DX001 (ip), evaluated on day 60): 133 % of control
